# Laboratory results published in publication doi:10.1101/2025.06.01.657323.
# B1: Frizzled 4 (neonatal cardiomyocytes) (receptor, UniProt Q9QZH0 38-538)
# chain: FGDEEERRCDPIRIAMCQNLGYNVTKMPNLVGHELQTDAELQLTTFTPLIQYGCSSQLQFFLCSVYVPMCTEKINIPIGPCGGMCLSVKRRCEPVLKEFGFAWPDSLNCSKFPPQNDHNHMCMEGPGDEEVPLPHKTPIQPGEECHSVGTNSDQYIWVKRSLNCVLKCGYDAGLYSRSAKEFTDIWMAVWASLCFISTTFTVLTFLIDSSRFSYPERPIIFLSMCYNIYSIAYIVRLTVGRERISCDFEEAAEPVLIQEGLKNTGCAIIFLLMYFFGMASSIWWVILTLTWFLAAGLKWGHEAIEMHSSYFHIAAWAIPAVKTIVILIMRLVDADELTGLCYVGNQSLDALTGFVVAPLFTYLVIGTLFIAAGLVALFKIRSNLQKDGTKTDKLERLMVKIGVFSVLYTVPATCVIACYFYEISNWALFRYSADDSNMAVEMLKIFMSLLVGITSGMWIWSAKTLHTWQKCSNRLVNSGKVKREKRGNGWVKPGKGNETVV
# Biological target: Wnt11 (neonatal cardiomyocytes) (rat (endogenous in NRVMs))
# Experiment: co-IP
binder,measurement,value
B1,binding,binds

# No constants are given. Whether binding was seen depends on the method and setting. In cells and extracts the contact can be indirect. Binding calls can cover weak binding; strength is not graded here.
